The results in this text go back to PMC2973829.

By UniProt entry, the sequences of proteins in these tests, tags left out.
UniProt O15524: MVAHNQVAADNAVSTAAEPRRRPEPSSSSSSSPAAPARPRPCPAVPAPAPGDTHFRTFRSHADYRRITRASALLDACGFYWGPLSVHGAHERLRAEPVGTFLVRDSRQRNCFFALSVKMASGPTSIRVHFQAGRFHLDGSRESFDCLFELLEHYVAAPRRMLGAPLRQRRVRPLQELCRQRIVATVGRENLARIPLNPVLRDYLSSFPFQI

No constants are given. Whether binding was seen depends on the method and setting. In cells and extracts the contact can be indirect. Some results given as binding are weak or reduced against the parent protein; the word gives no strength. Where a sequence is shown, tags or fusion partners need not be part of it.

In the experiment the target is T1, Flag-tagged IRF3 full length (Interferon regulatory factor 3) (UniProt Q14653).
T1 sequence: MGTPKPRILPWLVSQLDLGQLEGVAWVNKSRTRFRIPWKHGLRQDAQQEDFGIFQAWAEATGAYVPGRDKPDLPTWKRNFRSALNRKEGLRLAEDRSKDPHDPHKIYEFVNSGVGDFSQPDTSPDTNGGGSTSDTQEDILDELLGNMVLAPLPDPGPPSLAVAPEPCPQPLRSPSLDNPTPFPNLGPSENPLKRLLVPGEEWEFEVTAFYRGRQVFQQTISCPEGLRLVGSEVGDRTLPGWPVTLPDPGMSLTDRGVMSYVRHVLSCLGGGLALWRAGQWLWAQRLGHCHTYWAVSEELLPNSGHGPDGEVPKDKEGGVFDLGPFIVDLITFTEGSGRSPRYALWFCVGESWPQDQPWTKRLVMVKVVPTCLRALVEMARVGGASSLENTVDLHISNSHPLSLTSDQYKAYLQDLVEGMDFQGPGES
Put plainly: co-IP; HEK293 T cells co-transfected with Myc-SOCS1 and Flag-IRF3, 24 h; 1% Triton X-100 lysis buffer (20 mM Tris-HCl pH 7.5, 200 mM NaCl); whole cell extract 300 ug precipitated overnight at 4 C with anti-MYC (9E10) or anti-IRF3 antiserum (methods; the legend says Flag or Myc antibodies) on A/G Plus-agarose; immunoblot. A general note: A western blot detects proteins with antibodies after separation by electrophoresis.

With “Myc-tagged SOCS1 full length (Suppressor of cytokine signaling 1) (from UniProt O15524 1-211)”, the binding entry is recorded as “binds”.
